Experiment in all cases: two-hybrid
For experiment [1], the target named is T1, L-galactose dehydrogenase (L-GalDH), yeast two-hybrid fusions (Arabidopsis thaliana) (UniProt O81884).
T1 sequence: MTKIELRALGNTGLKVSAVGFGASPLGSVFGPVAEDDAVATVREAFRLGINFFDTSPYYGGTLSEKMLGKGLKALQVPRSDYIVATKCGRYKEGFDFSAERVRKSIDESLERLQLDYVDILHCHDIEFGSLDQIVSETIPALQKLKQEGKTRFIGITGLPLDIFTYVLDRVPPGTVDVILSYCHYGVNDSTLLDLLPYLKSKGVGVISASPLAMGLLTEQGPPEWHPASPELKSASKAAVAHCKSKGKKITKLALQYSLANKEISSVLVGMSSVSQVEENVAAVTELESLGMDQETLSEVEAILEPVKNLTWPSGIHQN

Experiment [2] concerns the target T2, L-galactono-1,4-lactone dehydrogenase (L-GalLDH), yeast two-hybrid fusions (Arabidopsis thaliana) (UniProt Q9SU56).
T2 sequence: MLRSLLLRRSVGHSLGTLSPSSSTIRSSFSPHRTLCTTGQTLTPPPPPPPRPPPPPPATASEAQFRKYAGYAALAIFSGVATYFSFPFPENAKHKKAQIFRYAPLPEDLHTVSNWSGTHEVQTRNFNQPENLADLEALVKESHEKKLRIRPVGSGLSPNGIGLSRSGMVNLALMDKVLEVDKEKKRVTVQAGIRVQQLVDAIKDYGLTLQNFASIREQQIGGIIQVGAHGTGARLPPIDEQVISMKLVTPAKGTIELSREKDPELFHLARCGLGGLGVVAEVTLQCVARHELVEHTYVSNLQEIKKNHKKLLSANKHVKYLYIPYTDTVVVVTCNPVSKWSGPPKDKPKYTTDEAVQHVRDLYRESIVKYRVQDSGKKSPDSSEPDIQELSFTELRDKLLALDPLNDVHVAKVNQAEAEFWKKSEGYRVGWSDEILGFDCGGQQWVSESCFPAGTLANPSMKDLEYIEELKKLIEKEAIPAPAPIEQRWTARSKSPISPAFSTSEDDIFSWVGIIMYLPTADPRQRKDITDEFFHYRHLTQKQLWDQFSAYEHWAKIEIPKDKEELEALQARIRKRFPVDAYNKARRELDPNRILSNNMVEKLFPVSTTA

Experiment [3] concerns the target T3, L-galactose 1-phosphate phosphatase (VTC4), yeast two-hybrid fusions (Arabidopsis thaliana) (UniProt Q9M8S8).
T3 sequence: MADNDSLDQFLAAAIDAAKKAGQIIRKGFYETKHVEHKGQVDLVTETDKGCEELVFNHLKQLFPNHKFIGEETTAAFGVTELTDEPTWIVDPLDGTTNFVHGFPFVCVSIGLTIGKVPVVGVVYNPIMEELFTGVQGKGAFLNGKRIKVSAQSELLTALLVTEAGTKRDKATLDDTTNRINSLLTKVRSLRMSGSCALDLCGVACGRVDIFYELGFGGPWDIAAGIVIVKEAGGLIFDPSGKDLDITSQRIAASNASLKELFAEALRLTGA

Experiment [4] addresses GDP-D-mannose epimerase (GME), yeast two-hybrid fusions (Arabidopsis thaliana) (UniProt Q93VR3).

These are yes or no findings as the source states them, for the method shown. Some entries that bind do so weakly or less than the wild type. Tags and fused reporters may be left off the sequences shown.

B1: GDP-D-mannose epimerase (GME), yeast two-hybrid fusions (enzyme, UniProt Q93VR3 1-377)
chain: MGTTNGTDYGAYTYKELEREQYWPSENLKISITGAGGFIASHIARRLKHEGHYVIASDWKKNEHMTEDMFCDEFHLVDLRVMENCLKVTEGVDHVFNLAADMGGMGFIQSNHSVIMYNNTMISFNMIEAARINGIKRFFYASSACIYPEFKQLETTNVSLKESDAWPAEPQDAYGLEKLATEELCKHYNKDFGIECRIGRFHNIYGPFGTWKGGREKAPAAFCRKAQTSTDRFEMWGDGLQTRSFTFIDECVEGVLRLTKSDFREPVNIGSDEMVSMNEMAEMVLSFEEKKLPIHHIPGPEGVRGRNSDNNLIKEKLGWAPNMRLKEGLRITYFWIKEQIEKEKAKGSDVSLYGSSKVVGTQAPVQLGSLRAADGKE
On to B1, for which the binding entry in experiment [1] is “no binding”; in experiment [2], “no binding”; in experiment [3], “no binding”; in experiment [4] it was “binds”.

B2: L-galactose dehydrogenase (L-GalDH), yeast two-hybrid fusions (enzyme, UniProt O81884 1-319)
chain: T1 sequence
Turning to B2, the binding entry in experiment [2] is recorded as “no binding”.

B3: GDP-L-galactose phosphorylase (VTC2), yeast two-hybrid fusions (enzyme, UniProt Q8RWE8 1-442)
chain: MLKIKRVPTVVSNYQKDDGAEDPVGCGRNCLGACCLNGARLPLYACKNLVKSGEKLVISHEAIEPPVAFLESLVLGEWEDRFQRGLFRYDVTACETKVIPGKYGFVAQLNEGRHLKKRPTEFRVDKVLQSFDGSKFNFTKVGQEELLFQFEAGEDAQVQFFPCMPIDPENSPSVVAINVSPIEYGHVLLIPRVLDCLPQRIDHKSLLLAVHMAAEAANPYFRLGYNSLGAFATINHLHFQAYYLAMPFPLEKAPTKKITTTVSGVKISELLSYPVRSLLFEGGSSMQELSDTVSDCCVCLQNNNIPFNILISDCGRQIFLMPQCYAEKQALGEVSPEVLETQVNPAVWEISGHMVLKRKEDYEGASEDNAWRLLAEASLSEERFKEVTALAFEAIGCSNQEEDLEGTIVHQQNSSGNVNQKSNRTHGGPITNGTAAECLVLQ
In the case of B3, the binding entry in experiment [1] and in experiment [2] was “no binding” each time.

B4: L-galactose 1-phosphate phosphatase (VTC4), yeast two-hybrid fusions (enzyme, UniProt Q9M8S8 1-271)
chain: T3 sequence
Consider B4, for which the binding result was “no binding” in experiment [2] and “binds” in experiment [3].

The record behind these values is paper doi:10.1101/2020.06.23.167247.
